In paper doi:10.1101/2021.12.10.472004 (bioRxiv, 2021):

Legend:
[1] = target: T1, Band 4.2 (human (endogenous in red blood cells)) (UniProt P16452); assay: cross-linking
T1 sequence: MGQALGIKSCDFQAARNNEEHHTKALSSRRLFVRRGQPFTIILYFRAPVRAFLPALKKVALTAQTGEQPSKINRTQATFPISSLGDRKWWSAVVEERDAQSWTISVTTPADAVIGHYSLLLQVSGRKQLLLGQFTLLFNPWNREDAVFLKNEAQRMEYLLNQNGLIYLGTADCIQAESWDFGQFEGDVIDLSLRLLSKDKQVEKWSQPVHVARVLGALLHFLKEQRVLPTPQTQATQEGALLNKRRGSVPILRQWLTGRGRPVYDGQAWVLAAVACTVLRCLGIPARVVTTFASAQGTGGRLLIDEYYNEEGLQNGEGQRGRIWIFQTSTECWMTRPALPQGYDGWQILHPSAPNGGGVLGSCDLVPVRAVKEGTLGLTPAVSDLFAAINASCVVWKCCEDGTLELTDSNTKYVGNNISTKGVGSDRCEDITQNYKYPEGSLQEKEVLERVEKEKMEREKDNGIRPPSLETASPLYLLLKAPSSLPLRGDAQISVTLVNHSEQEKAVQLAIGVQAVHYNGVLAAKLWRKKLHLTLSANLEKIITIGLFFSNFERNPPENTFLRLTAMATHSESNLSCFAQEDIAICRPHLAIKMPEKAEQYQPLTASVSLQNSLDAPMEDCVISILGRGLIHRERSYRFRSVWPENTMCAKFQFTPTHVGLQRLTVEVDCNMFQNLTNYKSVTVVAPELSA

[2] = target: T2, RhAG (human (endogenous in red blood cells)) (UniProt Q02094); assay: cross-linking
T2 sequence: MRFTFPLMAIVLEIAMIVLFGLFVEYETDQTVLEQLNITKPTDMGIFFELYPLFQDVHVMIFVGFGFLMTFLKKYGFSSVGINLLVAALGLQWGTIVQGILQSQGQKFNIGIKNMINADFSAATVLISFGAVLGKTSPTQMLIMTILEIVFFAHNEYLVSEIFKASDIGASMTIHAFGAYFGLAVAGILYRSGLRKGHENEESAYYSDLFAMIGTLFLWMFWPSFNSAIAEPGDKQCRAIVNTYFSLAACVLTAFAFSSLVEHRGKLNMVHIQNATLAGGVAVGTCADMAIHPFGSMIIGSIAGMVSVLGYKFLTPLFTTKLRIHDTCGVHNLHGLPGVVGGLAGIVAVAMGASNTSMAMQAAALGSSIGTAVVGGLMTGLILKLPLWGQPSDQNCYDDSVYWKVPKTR

binding [1]: binds
binding [2]: binds
Substance: RhCE/D (human (endogenous in red blood cells))

Results are given in words; binding and its absence hold for the method and conditions named. Binding seen in cells or lysates may run through a third protein. Binding calls can cover weak binding; strength is not graded here.
